Assay [1] has as its target Sar1a from cattle, FLAG-tagged (cattle) (UniProt Q3T0D7). The assay can be described thus: co-IP.
The target in assay [2] is Sar1a from swine, FLAG-tagged (swine) (UniProt Q52NJ3). As to the kind of experiment: co-IP.

Amino acid sequences for entries named in this document (tags omitted).
UniProt Q3T0D7, whole entry: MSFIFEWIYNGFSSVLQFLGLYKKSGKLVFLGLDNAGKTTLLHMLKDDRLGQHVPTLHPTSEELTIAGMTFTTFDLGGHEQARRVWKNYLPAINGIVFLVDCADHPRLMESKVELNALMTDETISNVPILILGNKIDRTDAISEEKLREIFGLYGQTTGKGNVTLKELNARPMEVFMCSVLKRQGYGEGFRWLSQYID
UniProt Q52NJ3, whole entry: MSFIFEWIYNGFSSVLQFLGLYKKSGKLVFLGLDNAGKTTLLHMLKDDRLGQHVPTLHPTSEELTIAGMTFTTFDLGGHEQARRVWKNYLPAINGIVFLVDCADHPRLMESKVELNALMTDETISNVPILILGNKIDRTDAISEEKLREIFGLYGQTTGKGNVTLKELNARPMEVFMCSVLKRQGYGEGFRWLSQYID

No constants are given. Whether binding was seen depends on the method and setting. Binding seen in cells or lysates may run through a third protein. Some results given as binding are weak or reduced against the parent protein; the word gives no strength.

As for “FMDV 3A protein of strain O/TAW/97 (from UniProt Q6PMV1 1426-1568)”, the binding entry in assay [1] and in assay [2] was “binds” throughout.
